Measurements reported in PMC8510090, “The DNA Recognition Motif of GapR Has an Intrinsic DNA Binding Preference towards AT-rich DNA” (Molecules, 2021).

Key:
[1] = target: T1, GapRΔC17 K66A (Caulobacter crescentus) (UniProt B8H4R9); assay: MST; settings: MST: 20 mM PBS, 150 mM NaCl, 0.02% n-dodecyl-β-D-maltoside, pH 7, 20 nM labeled dimer (labeling at room temperature); recombinant protein; residues 1-72; protein details: C-terminal His6
T1 sequence (looked up): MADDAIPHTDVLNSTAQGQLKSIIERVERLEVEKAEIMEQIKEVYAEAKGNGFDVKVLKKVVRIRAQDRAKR

[2] = target: T2, GapRΔC17 K49A (Caulobacter crescentus) (UniProt B8H4R9); assay: MST; settings: MST: 20 mM PBS, 150 mM NaCl, 0.02% n-dodecyl-β-D-maltoside, pH 7, 20 nM labeled dimer (labeling at room temperature); recombinant protein; residues 1-72; protein details: C-terminal His6
T2 sequence (looked up): T1 sequence (looked up) with K49A, A66K

[3] = target: T3, GapRΔC17 K56A (Caulobacter crescentus) (UniProt B8H4R9); assay: MST; settings: MST: 20 mM PBS, 150 mM NaCl, 0.02% n-dodecyl-β-D-maltoside, pH 7, 20 nM labeled dimer (labeling at room temperature); recombinant protein; residues 1-72; protein details: C-terminal His6
T3 sequence (looked up): T1 sequence (looked up) with K56A, A66K

[4] = target: T4, GapRΔC17 K34A (Caulobacter crescentus) (UniProt B8H4R9); assay: MST; settings: MST: 20 mM PBS, 150 mM NaCl, 0.02% n-dodecyl-β-D-maltoside, pH 7, 20 nM labeled dimer (labeling at room temperature); recombinant protein; residues 1-72; protein details: C-terminal His6
T4 sequence (looked up): T1 sequence (looked up) with K34A, A66K

[5] = target: T5, GapRΔC17 R63A (Caulobacter crescentus) (UniProt B8H4R9); assay: MST; settings: MST: 20 mM PBS, 150 mM NaCl, 0.02% n-dodecyl-β-D-maltoside, pH 7, 20 nM labeled dimer (labeling at room temperature); recombinant protein; residues 1-72; protein details: C-terminal His6
T5 sequence (looked up): T1 sequence (looked up) with R63A, A66K

[6] = target: T6, GapRΔC17 K42A (Caulobacter crescentus) (UniProt B8H4R9); assay: MST; settings: MST: 20 mM PBS, 150 mM NaCl, 0.02% n-dodecyl-β-D-maltoside, pH 7, 20 nM labeled dimer (labeling at room temperature); recombinant protein; residues 1-72; protein details: C-terminal His6
T6 sequence (looked up): T1 sequence (looked up) with K42A, A66K

[7] = target: T7, GapRΔC17 K59A (Caulobacter crescentus) (UniProt B8H4R9); assay: MST; settings: MST: 20 mM PBS, 150 mM NaCl, 0.02% n-dodecyl-β-D-maltoside, pH 7, 20 nM labeled dimer (labeling at room temperature); recombinant protein; residues 1-72; protein details: C-terminal His6
T7 sequence (looked up): T1 sequence (looked up) with K59A, A66K

[8] = target: T8, GapRΔC17 (Caulobacter crescentus) (UniProt B8H4R9); assay: NMR titration (1H-15N HSQC); settings: recombinant protein; residues 1-72; protein details: C-terminal His6
T8 sequence (looked up): T1 sequence (looked up) with A66K

Measured: binding result

CGCAAAAAAGCG (double strand) [6A DNA]
binds more weakly: [1] | [2] | [3] | [4] | [5] | [6] | [7]

CTACGCGCGTAG (double strand) [3CG DNA]
binds more weakly: [8]

Substitutions are numbered along the chain they refer to. A weaker result is weaker than the reference pair of the same experiment. Tags and fusion partners may be left off the protein sequences shown.
